Laboratory results taken from the supplement of paper PMC12823440, “Inhibitors supercharge kinase turnover through native proteolytic circuits” (Nature, 2025).
Where a name gives a salt, the structure may show the parent alone. This is one part of the list. Hit calls seldom repeat between salt and free forms of one compound.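 In K562 cells expressing nanoluciferase-fused kinases, luminescence was recorded at 4 h intervals between 2 and 18 h, normalized as percent of control with DMSO at 100% and a positive control at 0%. A significant (2 sigma) signal drop marks a time point as decreased. The authors' rule for a hit is not shown and takes in more than the number of time points.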

By UniProt entry, the sequences of proteins in these tests, tags left out. Where a name states a change or a piece, a line headed by the entry shows the natural chain unless it says otherwise.
UniProt P11362, whole entry, looked up: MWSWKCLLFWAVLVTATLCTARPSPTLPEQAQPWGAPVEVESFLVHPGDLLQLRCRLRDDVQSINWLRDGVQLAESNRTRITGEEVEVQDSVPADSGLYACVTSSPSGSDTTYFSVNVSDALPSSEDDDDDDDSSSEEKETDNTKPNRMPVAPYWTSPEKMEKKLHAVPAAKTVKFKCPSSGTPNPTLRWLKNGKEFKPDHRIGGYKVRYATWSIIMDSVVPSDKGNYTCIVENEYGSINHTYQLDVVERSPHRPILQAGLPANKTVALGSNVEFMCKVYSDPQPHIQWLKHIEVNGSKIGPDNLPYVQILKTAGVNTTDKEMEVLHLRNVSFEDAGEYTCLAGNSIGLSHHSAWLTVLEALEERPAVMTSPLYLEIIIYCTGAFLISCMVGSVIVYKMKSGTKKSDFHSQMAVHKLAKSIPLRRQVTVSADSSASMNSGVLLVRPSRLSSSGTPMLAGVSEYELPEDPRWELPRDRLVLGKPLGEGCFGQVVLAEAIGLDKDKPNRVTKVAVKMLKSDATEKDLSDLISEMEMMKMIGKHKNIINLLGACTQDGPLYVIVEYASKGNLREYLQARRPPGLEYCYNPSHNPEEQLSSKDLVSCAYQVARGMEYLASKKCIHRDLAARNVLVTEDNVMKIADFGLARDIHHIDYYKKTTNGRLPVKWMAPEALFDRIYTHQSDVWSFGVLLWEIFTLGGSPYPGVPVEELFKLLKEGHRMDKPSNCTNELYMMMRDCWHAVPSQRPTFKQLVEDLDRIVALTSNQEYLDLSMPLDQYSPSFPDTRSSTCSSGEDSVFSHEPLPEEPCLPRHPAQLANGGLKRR
UniProt P21802, whole entry, looked up: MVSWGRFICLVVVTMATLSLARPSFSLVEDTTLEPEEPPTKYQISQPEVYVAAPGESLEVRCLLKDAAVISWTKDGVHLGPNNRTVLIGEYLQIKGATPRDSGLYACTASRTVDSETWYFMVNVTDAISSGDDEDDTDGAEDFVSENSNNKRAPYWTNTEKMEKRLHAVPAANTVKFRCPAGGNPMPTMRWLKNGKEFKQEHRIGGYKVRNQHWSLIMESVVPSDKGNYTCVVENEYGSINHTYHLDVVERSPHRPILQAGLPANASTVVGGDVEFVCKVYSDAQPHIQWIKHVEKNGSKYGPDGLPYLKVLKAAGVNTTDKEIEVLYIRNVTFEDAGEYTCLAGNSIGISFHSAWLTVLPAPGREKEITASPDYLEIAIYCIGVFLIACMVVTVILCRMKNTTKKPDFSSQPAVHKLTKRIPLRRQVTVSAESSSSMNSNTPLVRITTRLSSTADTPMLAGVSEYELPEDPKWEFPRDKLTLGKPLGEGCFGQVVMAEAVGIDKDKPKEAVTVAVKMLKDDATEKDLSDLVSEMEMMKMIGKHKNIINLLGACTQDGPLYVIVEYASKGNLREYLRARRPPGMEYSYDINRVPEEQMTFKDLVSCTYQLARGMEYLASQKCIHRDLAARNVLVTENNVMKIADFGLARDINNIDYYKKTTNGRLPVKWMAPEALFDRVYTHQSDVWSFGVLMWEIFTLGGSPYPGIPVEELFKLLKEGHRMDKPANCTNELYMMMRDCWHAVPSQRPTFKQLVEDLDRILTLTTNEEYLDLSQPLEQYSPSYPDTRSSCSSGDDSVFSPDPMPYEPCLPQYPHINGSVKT
UniProt P22607, whole entry, looked up: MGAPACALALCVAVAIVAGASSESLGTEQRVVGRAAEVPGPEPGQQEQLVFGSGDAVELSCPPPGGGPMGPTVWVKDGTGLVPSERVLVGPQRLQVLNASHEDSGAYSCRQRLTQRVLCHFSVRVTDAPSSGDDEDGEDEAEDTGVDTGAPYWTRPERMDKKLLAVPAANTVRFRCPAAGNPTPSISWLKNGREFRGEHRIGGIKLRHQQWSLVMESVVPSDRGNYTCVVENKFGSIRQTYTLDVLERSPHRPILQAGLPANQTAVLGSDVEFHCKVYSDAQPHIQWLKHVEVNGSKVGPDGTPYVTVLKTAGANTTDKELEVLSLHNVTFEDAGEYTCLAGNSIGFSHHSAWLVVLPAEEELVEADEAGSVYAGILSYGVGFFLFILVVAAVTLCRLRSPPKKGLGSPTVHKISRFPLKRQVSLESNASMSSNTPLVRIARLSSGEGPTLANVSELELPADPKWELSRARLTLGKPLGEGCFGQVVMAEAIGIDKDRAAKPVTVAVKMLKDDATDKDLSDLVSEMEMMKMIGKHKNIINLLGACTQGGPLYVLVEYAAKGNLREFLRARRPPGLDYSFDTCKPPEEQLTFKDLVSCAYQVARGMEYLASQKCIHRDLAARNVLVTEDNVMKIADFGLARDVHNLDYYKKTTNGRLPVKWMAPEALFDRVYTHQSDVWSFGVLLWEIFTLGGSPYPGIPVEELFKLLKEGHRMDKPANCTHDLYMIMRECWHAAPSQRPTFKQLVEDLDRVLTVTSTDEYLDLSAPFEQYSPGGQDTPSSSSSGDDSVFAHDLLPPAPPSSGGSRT
UniProt P36888, whole entry: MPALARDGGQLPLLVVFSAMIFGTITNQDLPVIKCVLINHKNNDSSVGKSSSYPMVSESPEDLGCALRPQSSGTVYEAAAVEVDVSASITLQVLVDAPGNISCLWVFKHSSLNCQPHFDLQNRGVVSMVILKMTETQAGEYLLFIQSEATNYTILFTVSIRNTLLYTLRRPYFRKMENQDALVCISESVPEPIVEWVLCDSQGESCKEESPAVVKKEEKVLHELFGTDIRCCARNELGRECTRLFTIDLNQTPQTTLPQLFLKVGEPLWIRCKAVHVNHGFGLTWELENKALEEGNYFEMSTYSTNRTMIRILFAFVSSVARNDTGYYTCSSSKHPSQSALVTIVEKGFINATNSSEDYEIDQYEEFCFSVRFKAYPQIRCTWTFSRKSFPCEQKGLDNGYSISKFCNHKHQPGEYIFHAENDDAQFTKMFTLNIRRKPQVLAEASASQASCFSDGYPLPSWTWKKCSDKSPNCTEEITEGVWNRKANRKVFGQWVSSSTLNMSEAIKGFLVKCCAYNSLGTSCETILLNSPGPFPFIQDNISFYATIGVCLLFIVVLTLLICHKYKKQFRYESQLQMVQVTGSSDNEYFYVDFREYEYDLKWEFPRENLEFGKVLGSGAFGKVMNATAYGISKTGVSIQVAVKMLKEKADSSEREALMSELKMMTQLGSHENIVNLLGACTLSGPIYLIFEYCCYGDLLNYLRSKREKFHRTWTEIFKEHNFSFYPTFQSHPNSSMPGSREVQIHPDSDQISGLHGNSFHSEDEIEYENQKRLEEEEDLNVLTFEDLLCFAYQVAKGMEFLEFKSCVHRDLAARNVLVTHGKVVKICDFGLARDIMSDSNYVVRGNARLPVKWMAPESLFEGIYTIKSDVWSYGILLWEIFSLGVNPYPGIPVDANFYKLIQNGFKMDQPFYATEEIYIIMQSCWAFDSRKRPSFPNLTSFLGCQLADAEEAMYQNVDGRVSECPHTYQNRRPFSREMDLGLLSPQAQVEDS
UniProt P06241, whole entry, looked up: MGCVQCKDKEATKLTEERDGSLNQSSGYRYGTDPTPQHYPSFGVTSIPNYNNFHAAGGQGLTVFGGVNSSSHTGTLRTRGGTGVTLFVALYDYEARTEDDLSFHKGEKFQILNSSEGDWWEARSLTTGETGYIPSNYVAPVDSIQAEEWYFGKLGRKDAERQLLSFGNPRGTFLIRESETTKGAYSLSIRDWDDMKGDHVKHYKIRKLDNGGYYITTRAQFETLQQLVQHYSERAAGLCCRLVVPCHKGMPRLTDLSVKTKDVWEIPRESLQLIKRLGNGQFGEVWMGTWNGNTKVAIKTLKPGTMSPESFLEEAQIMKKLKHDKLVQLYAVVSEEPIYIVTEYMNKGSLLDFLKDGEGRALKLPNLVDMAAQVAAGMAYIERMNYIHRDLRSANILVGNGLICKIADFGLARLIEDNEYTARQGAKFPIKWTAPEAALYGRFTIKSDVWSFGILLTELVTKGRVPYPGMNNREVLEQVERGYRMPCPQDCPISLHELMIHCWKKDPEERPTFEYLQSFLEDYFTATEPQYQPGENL
UniProt P49840: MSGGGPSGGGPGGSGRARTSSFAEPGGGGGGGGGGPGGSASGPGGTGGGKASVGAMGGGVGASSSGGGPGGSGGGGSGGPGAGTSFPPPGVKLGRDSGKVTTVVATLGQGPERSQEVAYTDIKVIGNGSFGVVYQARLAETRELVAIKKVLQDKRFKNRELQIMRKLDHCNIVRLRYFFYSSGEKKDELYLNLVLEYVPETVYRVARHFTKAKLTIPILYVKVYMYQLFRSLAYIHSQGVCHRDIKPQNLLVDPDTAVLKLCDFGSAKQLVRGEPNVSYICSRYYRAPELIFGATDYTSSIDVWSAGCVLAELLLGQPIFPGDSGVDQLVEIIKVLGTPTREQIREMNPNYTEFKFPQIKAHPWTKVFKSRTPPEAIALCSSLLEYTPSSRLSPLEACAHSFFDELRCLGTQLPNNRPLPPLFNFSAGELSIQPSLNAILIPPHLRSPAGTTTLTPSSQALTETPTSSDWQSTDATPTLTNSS
UniProt P14616: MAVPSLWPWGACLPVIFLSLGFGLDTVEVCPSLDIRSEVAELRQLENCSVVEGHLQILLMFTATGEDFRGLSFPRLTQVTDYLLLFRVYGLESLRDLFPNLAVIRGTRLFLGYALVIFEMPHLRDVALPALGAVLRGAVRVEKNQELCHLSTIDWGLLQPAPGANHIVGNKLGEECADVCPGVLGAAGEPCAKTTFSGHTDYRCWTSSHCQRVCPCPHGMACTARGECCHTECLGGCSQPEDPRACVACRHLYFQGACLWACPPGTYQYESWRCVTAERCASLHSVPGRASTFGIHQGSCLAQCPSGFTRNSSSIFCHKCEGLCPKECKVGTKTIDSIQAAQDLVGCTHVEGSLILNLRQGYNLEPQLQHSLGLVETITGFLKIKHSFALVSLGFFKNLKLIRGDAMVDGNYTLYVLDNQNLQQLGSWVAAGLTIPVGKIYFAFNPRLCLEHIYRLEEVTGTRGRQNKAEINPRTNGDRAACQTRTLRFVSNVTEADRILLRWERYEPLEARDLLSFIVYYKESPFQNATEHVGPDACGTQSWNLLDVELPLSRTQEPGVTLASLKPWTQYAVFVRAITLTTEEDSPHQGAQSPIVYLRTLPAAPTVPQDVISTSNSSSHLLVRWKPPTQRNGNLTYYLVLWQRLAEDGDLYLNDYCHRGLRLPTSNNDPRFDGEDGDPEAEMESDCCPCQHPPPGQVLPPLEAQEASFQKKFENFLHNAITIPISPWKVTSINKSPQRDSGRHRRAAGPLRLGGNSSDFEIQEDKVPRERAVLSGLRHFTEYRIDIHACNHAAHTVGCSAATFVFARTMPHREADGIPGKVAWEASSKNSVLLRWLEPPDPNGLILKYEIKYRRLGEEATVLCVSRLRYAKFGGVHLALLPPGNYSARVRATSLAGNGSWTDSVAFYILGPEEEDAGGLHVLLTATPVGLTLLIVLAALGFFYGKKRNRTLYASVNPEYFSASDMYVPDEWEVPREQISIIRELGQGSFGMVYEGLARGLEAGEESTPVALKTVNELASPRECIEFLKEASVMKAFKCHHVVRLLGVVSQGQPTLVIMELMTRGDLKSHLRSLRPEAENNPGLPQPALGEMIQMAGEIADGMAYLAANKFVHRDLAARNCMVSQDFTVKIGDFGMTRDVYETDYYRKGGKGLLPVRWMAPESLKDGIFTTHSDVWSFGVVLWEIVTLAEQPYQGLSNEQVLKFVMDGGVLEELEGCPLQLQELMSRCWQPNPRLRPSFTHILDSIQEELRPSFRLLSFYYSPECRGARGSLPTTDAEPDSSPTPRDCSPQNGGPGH

Columns and labels:
Assay in all cases: kinase-Nluc reporter destabilization hit call (1 = scored as downregulated) (binary); higher = compound decreases kinase abundance
Settings in all cases: K562; 2-18 h
ERN1 = ERN1 (UniProt O75460)
FGFR1 = FGFR1 (UniProt P11362)
FGFR2 = FGFR2 (UniProt P21802)
FGFR3 = FGFR3 (UniProt P22607)
FGR = FGR (UniProt P09769)
FLT3 = FLT3 (UniProt P36888)
FYN = FYN (UniProt P06241)
GSK3A = GSK3A (UniProt P49840)
HER2 = HER2 (UniProt P04626)
INSRR = INSRR (UniProt P14616)

Measured: kinase-Nluc reporter destabilization hit call

O=C(Nc1cn[nH]c1-c1ccccn1)c1nn(C2CCNCC2)cc1Cl (10 µM)
inactive: ERN1 = 0 | FGFR1 = 0 | FGFR2 = 0 | FGFR3 = 0 | FGR 0 | FLT3 = 0 | FYN 0 | GSK3A 0 | HER2 = 0 | INSRR 0

COCCNc1nc2ccc(C#CC3(O)CCCCC3)cc2n1-c1ccnc(N)n1 (10 µM)
inactive: ERN1 = 0 | FGFR1 = 0 | FGFR2 = 0 | FGFR3 = 0 | FGR 0 | FLT3 = 0 | FYN 0 | GSK3A 0 | HER2 = 0 | INSRR 0

CCOc1ccc2cc(-c3nn(CC4CCN(C)CC4)c4ncnc(N)c34)ccc2n1 (10 µM)
inactive: ERN1 = 0 | FGFR1 = 0 | FGFR2 = 0 | FGFR3 = 0 | FGR 0 | FLT3 = 0 | FYN 0 | GSK3A 0 | HER2 = 0 | INSRR 0

C[C@@H]1CCN(C(=O)CC#N)C[C@@H]1N(C)c1ncnc2[nH]ccc12 [Tofacitinib] (10 µM)
inactive: ERN1 = 0 | FGFR1 = 0 | FGFR2 = 0 | FGFR3 = 0 | FGR 0 | FLT3 = 0 | FYN 0 | GSK3A 0 | HER2 = 0 | INSRR 0

Nc1ncnc2c1c(-c1ccc(Oc3ccccc3)cc1)nn2C1CCCC1 (2.5 µM)
inactive: ERN1 = 0 | FGFR1 = 0 | FGFR2 = 0 | FGFR3 = 0 | FGR 0 | FLT3 = 0 | FYN 0 | GSK3A 0 | HER2 = 0 | INSRR 0

Among those listed so far, two contain an NH in an aromatic ring.
O=C(Nc1cn[nH]c1-c1ccccn1)c1nn(C2CCNCC2)cc1Cl (10 µM)
inactive: ERN1 = 0 | FGFR1 = 0 | FGFR2 = 0 | FGFR3 = 0 | FGR 0 | FLT3 = 0 | FYN 0 | GSK3A 0 | HER2 = 0 | INSRR 0

C[C@@H]1CCN(C(=O)CC#N)C[C@@H]1N(C)c1ncnc2[nH]ccc12 [Tofacitinib] (10 µM)
inactive: ERN1 = 0 | FGFR1 = 0 | FGFR2 = 0 | FGFR3 = 0 | FGR 0 | FLT3 = 0 | FYN 0 | GSK3A 0 | HER2 = 0 | INSRR 0

Next part

Cc1ccc(OCCSc2ncccn2)c(Br)c1 [ZLN024 (hydrochloride)] (10 µM)
inactive: ERN1 = 0 | FGFR1 = 0 | FGFR2 = 0 | FGFR3 = 0 | FGR 0 | FLT3 = 0 | FYN 0 | GSK3A 0 | HER2 = 0 | INSRR 0

CC1CCc2c(cc(Br)c(F)c2Br)N1C=O (configuration not stated) (10 µM)
inactive: ERN1 = 0 | FGFR1 = 0 | FGFR2 = 0 | FGFR3 = 0 | FGR 0 | FLT3 = 0 | FYN 0 | GSK3A 0 | HER2 = 0 | INSRR 0

Cc1ccc(CNc2ncnc3ccc(-c4ccc(CO)o4)cc23)o1 (10 µM)
inactive: ERN1 = 0 | FGFR1 = 0 | FGFR2 = 0 | FGFR3 = 0 | FGR 0 | FLT3 = 0 | FYN 0 | GSK3A 0 | HER2 = 0 | INSRR 0

CC(C)(C)c1cc(O)ccc1O (10 µM)
inactive: ERN1 = 0 | FGFR1 = 0 | FGFR2 = 0 | FGFR3 = 0 | FGR 0 | FLT3 = 0 | FYN 0 | GSK3A 0 | HER2 = 0 | INSRR 0

O=c1[nH]c(=O)n([C@@H]2O[C@H](CO)[C@@H](O)[C@@H]2O)cc1/C=C/Br [Sorivudine] (10 µM)
inactive: ERN1 = 0 | FGFR1 = 0 | FGFR2 = 0 | FGFR3 = 0 | FGR 0 | FLT3 = 0 | FYN 0 | GSK3A 0 | HER2 = 0 | INSRR 0

O=C(NCCN1CCCC1)c1cc(-c2ccc(CN3CCOCC3)cc2)nc2ccc(F)cc12 (10 µM)
inactive: ERN1 = 0 | FGFR1 = 0 | FGFR2 = 0 | FGFR3 = 0 | FGR 0 | FLT3 = 0 | FYN 0 | GSK3A 0 | HER2 = 0 | INSRR 0

CC(C)(C)c1nc(-c2cccc(NS(=O)(=O)c3c(F)cccc3F)c2F)c(-c2ccnc(N)n2)s1 [Dabrafenib] (2.5 µM)
inactive: ERN1 = 0 | FGFR1 = 0 | FGFR2 = 0 | FGFR3 = 0 | FGR 0 | FLT3 = 0 | FYN 0 | GSK3A 0 | HER2 = 0 | INSRR 0

C[C@H](c1ccnc(Nc2nc3ccc(-c4cc(N(C)C)ncn4)cc3[nH]2)c1)N1CCN(C(=O)CC(F)(F)F)CC1 (2.5 µM)
inactive: ERN1 = 0 | FGFR1 = 0 | FGFR2 = 0 | FGFR3 = 0 | FGR 0 | FLT3 = 0 | FYN 0 | GSK3A 0 | HER2 = 0 | INSRR 0

CN(CC(=O)N(Cc1ccc(C2CCCCC2)cc1)c1ccc(C(=O)NO)cc1)S(=O)(=O)c1c(F)c(F)c(F)c(F)c1F (2.5 µM)
inactive: ERN1 = 0 | FGFR1 = 0 | FGFR2 = 0 | FGFR3 = 0 | FGR 0 | FLT3 = 0 | FYN 0 | GSK3A 0 | HER2 = 0 | INSRR 0

C[C@@H]1CC[C@@H](Nc2nc(NC(C)(C)C)ncc2C(N)=O)C[C@H]1O (10 µM)
inactive: ERN1 = 0 | FGFR1 = 0 | FGFR2 = 0 | FGFR3 = 0 | FGR 0 | FLT3 = 0 | FYN 0 | GSK3A 0 | HER2 = 0 | INSRR 0

CN1C(=O)N[C@H](Cc2c[nH]c3c(Cl)cccc23)C1=O [Necrostatin 2] (10 µM)
inactive: ERN1 = 0 | FGFR1 = 0 | FGFR2 = 0 | FGFR3 = 0 | FGR 0 | FLT3 = 0 | FYN 0 | GSK3A 0 | HER2 = 0 | INSRR 0

COc1ccc(Cl)c(Nc2nc3ccccc3nc2NS(=O)(=O)c2cccc(NC(=O)C(C)(C)N)c2)c1 [Pilaralisib] (10 µM)
inactive: ERN1 = 0 | FGFR1 = 0 | FGFR2 = 0 | FGFR3 = 0 | FGR 0 | FLT3 = 0 | FYN 0 | GSK3A 0 | HER2 = 0 | INSRR 0

Cc1cc(CN2CCN(c3c(Br)cnc4nc(-c5ccc(N6CCN(C)CC6)cc5)[nH]c34)CC2)no1 (2.5 µM)
inactive: ERN1 = 0 | FGFR1 = 0 | FGFR2 = 0 | FGFR3 = 0 | FGR 0 | FLT3 = 0 | FYN 0 | GSK3A 0 | HER2 = 0 | INSRR 0

CN1CCN(c2cccc(Nc3nc4c(-c5ccc(S(C)(=O)=O)cc5)cccn4n3)c2)CC1 (10 µM)
inactive: ERN1 = 0 | FGFR1 = 0 | FGFR2 = 0 | FGFR3 = 0 | FGR 0 | FLT3 = 0 | FYN 0 | GSK3A 0 | HER2 = 0 | INSRR 0

COc1ccc2c(OCc3nnc4ccc(-c5ccccc5)nn34)ccnc2c1 (2 µM)
inactive: ERN1 = 0 | FGFR1 = 0 | FGFR2 = 0 | FGFR3 = 0 | FGR 0 | FLT3 = 0 | FYN 0 | GSK3A 0 | HER2 = 0 | INSRR 0

CN1CCN(c2cnc3c(C4CCN(C(=O)c5ccc(OC(F)(F)F)cc5N)CC4)ncnc3c2)CC1 (10 µM)
inactive: ERN1 = 0 | FGFR1 = 0 | FGFR2 = 0 | FGFR3 = 0 | FGR 0 | FLT3 = 0 | FYN 0 | GSK3A 0 | HER2 = 0 | INSRR 0

CN(C)C(=O)Cn1cc(-c2ccc(-c3cncc4ccccc34)cc2)cn1 (10 µM)
inactive: ERN1 = 0 | FGFR1 = 0 | FGFR2 = 0 | FGFR3 = 0 | FGR 0 | FLT3 = 0 | FYN 0 | GSK3A 0 | HER2 = 0 | INSRR 0

Oc1ccc(Nc2nc(-c3ccc(Cl)cc3)cs2)cc1 (10 µM)
inactive: ERN1 = 0 | FGFR1 = 0 | FGFR2 = 0 | FGFR3 = 0 | FGR 0 | FLT3 = 0 | FYN 0 | GSK3A 0 | HER2 = 0 | INSRR 0

COc1cc(Nc2ncc(F)c(Nc3ccc4c(n3)NC(=O)C(C)(C)O4)n2)cc(OC)c1OC (10 µM)
inactive: ERN1 = 0 | FGFR1 = 0 | FGFR3 = 0 | FGR 0 | FLT3 = 0 | GSK3A 0 | HER2 = 0 | INSRR 0

CNC(=O)c1cc(COc2nnc(Nc3ccc(Cl)cc3)c3ccoc23)ccn1 [Telatinib] (10 µM)
inactive: ERN1 = 0 | FGFR1 = 0 | FGFR2 = 0 | FGFR3 = 0 | FGR 0 | FLT3 = 0 | FYN 0 | GSK3A 0 | HER2 = 0 | INSRR 0

Cc1ccc2nc(NCCN)c3ncc(C)n3c2c1 (2.5 µM)
inactive: ERN1 = 0 | FGFR1 = 0 | FGFR2 = 0 | FGFR3 = 0 | FGR 0 | FLT3 = 0 | FYN 0 | GSK3A 0 | HER2 = 0 | INSRR 0

COc1cc2c(N3CCN(C(=O)Nc4ccc(OC(C)C)cc4)CC3)ncnc2cc1OCCCN1CCCCC1 [Tandutinib (hydrochloride)] (10 µM)
inactive: ERN1 = 0 | FGFR1 = 0 | FGFR2 = 0 | FGFR3 = 0 | FGR 0 | FYN 0 | GSK3A 0 | HER2 = 0 | INSRR 0

C=CC(=O)Nc1cccc(Nc2nc(Nc3ccc(NC4CN(CCF)C4)cc3OC)ncc2C(F)(F)F)c1 (2.5 µM)
inactive: ERN1 = 0 | FGFR1 = 0 | FGFR2 = 0 | FGFR3 = 0 | FGR 0 | FLT3 = 0 | FYN 0 | GSK3A 0 | HER2 = 0 | INSRR 0
